Measurements reported in PubChem BioAssay AID1259266 (Sanger Institute, 2017)

- Assay: 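Search kinases and colorectal cancer genes for essential genes and drug synergy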 (primary screen)
- Cell system: LS123 human colorectal cancer cells
- Reagents: siRNA pool against human genes
- Challenge: anchor drugs BYL719 (1 µM), cetuximab (5 µg/ml) or trametinib (10 nM), each chosen to barely slow growth alone; DMSO vehicle as the drug-free arm
- Detection: 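Replicate-averaged viability scaled to non-targeting pools, robust z-score for siRNA alone, and a synergy score per anchor drug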
- Reading the numbers: robust z-score, knock-down alone: higher = more cells surviving after knock-down; viability, knock-down alone: higher = more viable cells
- Hit rule: 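Essential when the robust z-score of the knock-down alone is below -3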
- Calls: active = essential (knock-down alone cuts viability); inactive = no change
The whole screen tested 794 reagents; below is a random part of them. 16 of all reagents (2%) count as active. 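Calls reflect knock-down alone, not drug synergy; viability seems capped at 1 and z-scores at 0.585.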 Not all columns of the deposit are shown. Not given: the amount of reagent, the time to read-out.

With knock-down of ADGRL2 (adhesion G protein-coupled receptor L2) the results were robust z-score, knock-down alone 0.585; viability, knock-down alone (fraction of control) = 1; inactive. Depletion of MAP3K13 (mitogen-activated protein kinase kinase kinase 13) came out at: robust z-score, knock-down alone 0.0815; viability, knock-down alone (fraction of control) = 0.97; inactive. Against NTN4 (netrin 4), the values are robust z-score, knock-down alone 0.183; viability, knock-down alone (fraction of control) = 0.976; inactive. Against FOXP1 (forkhead box P1), the entry reads robust z-score, knock-down alone -1.65; viability, knock-down alone (fraction of control) = 0.867; inactive. With knock-down of ERN2 (endoplasmic reticulum to nucleus signaling 2) the results were robust z-score, knock-down alone 0.585; viability, knock-down alone (fraction of control) = 1; inactive. With knock-down of ATR (ATR checkpoint kinase), the screen gave robust z-score, knock-down alone 0.529; viability, knock-down alone (fraction of control) = 0.997; inactive.

Depletion of PIK3CB came out at: robust z-score, knock-down alone 0.585; viability, knock-down alone (fraction of control) = 1; inactive. UHMK1 (U2AF homology motif kinase 1) scored robust z-score, knock-down alone -0.0255; viability, knock-down alone (fraction of control) = 0.964; inactive. With knock-down of MYLK (myosin light chain kinase) the results were robust z-score, knock-down alone 0.585; viability, knock-down alone (fraction of control) = 1; inactive. Against CDK13 (cyclin dependent kinase 13) the deposit lists robust z-score, knock-down alone 0.585; viability, knock-down alone (fraction of control) = 1; inactive. For SPHK1 (sphingosine kinase 1), the values are robust z-score, knock-down alone -0.0452; viability, knock-down alone (fraction of control) = 0.963; inactive. MAP3K2 (mitogen-activated protein kinase kinase kinase 2) scored robust z-score, knock-down alone 0.585; viability, knock-down alone (fraction of control) = 1; inactive.

Entries listed so far whose target name starts with A or a:
ADGRL2 (adhesion G protein-coupled receptor L2) → robust z-score, knock-down alone: 0.585; viability, knock-down alone (fraction of control): 1; call: inactive
ATR (ATR checkpoint kinase) → robust z-score, knock-down alone: 0.529; viability, knock-down alone (fraction of control): 0.997; call: inactive
